Source: patent US20060287510A1 (Genentech, published 2006)
Results are given in words; binding and its absence hold for the method and conditions named. Some results given as binding are weak or reduced against the parent protein; the word gives no strength. Values belong to the molecule of their own block, whether it stands above or below them.

Sequences of proteins named here, by UniProt entry; tags and fusion partners are left off. A change or cut given only in a name is not applied to a line headed by its entry. Residues count along the entry.
UniProt P05019: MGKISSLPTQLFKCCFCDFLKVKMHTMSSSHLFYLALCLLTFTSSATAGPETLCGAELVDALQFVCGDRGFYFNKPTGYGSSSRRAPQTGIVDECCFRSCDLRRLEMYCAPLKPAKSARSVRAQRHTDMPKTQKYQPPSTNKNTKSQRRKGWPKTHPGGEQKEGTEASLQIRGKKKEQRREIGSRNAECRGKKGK
UniProt P17936, residues 28-291: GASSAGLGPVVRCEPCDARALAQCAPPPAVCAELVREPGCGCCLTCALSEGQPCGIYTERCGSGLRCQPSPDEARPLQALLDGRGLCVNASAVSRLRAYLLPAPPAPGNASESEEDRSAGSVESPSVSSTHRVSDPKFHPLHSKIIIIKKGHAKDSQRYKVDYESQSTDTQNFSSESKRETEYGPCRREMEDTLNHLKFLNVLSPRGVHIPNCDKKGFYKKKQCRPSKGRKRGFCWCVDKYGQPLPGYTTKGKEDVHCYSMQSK

Columns and labels:
[1] = target: human IGF-1 displayed on bacteriophage particles (phage vector pIGF-g3) (human) (UniProt P05019); experiment: competition phage ELISA: IGF-1 phage preincubated with soluble IGFBP-3, residual binding to immobilized IGFBP-3 read at OD450
[2] = target: human IGF-1 displayed on bacteriophage particles (phage vector pIGF-g3) (human) (UniProt P05019); experiment: competition phage ELISA: IGF-1 phage preincubated with soluble IGFBP-1, residual binding to immobilized IGFBP-1 read at OD450

binding [1]: binds
Molecule: IGFBP-3 (from UniProt P17936 28-291)

binding [2]: binds
B1: IGFBP-1 (protein, UniProt P08833 26-259, looked up)
chain: APWQCAPCSAEKLALCPPVSASCSEVTRSAGCGCCPMCALPLGAACGVATARCARGLSCRALPGEQQPLHALTRGQGACVQESDASAPHAAEAGSPESPESTEITEEELLDNFHLMAPSEEDHSILWDAISTYDGSKALHVTNIKKWKEPCRIELYRVVESLAKAQETSGEEISKFYLPNCNKNGFYHSRQCETSMDGEAGLCWCVYPWNGKRIPGSPEIRGDPNCQIYFNVQN
